Some peptides are written in HELM: one residue between dots, names in brackets for other building blocks, links after the first $.
Experiment: general procedure: solution-phase peptide synthesis; dicyclohexylcarbodiimide/N-hydroxysuccinimide; mixed anhydride (isobutyl chlorof)
[1] = coupling step, acetate, phosphate or methanesulfonate salts
[2] = coupling step, assuming monoacetate salt, acetate, phosphate or methanesulfonate salts
[3] = late stage modification step, acetate, phosphate or methanesulfonate salts
[4] = late stage modification step, monoacetate salt sesquihydrate

## Boc-Example 2
[1]
  step yield: 80% yield

## Boc-Example 3
[1]
  step yield: 70% yield

## Boc-Example 4
[1]
  step yield: 73% yield

## Boc-Example 5
[1]
  step yield: 78% yield

## Boc-Example 6
[1]
  step yield: 86% yield

## Boc-Example 9
[1]
  step yield: 79% yield

## Boc-Example 10
[1]
  step yield: 42% yield

## Boc-Example 11
[2]
  step yield: 65% yield

## Boc-Example 12
[2]
  step yield: 80% yield

## Boc-Pro-trp-Phe-trp-NHNH2
[3]
  step yield: 80% yield

## PEPTIDE1{P.[D-Trp(NH)Phe].[dW].L.F.[am]}$$$$V2.0
[3]
  step yield: 66% yield

## PEPTIDE1{P.[D-Trp(S)Phe].[D-Trp(S)Leu].[NHCH2CH(Bzl)NH2]}$$$$V2.0
[3]
  step yield: 66% yield

## PEPTIDE1{P.[D-Trp(S)Phe].[dW].L.F.[am]}$$$$V2.0
[4]
  step yield: 84% yield
Whole synthesis, overall over last three steps, diacetate salt monohydrate
  isolated yield: 50% overall yield

## PEPTIDE1{P.[D-Trp(S)Phe].[dW].L.F}$$$$V2.0
[3]
  step yield: 77% yield

## PEPTIDE1{P.[D-Trp(S)Phe].[dW].L.[x-MePhe].[am]}$$$$V2.0
[3]
  step yield: 6% yield

## PEPTIDE1{P.[L-Trp(S)Phe].[dW].L.F.[am]}$$$$V2.0
[4]
  step yield: 83% yield

## PEPTIDE1{P.[dW].[L-Phe(NH)Trp].L.F.[am]}$$$$V2.0
Late stage modification step, phosphate (1:1) salt
  step yield: 63% yield

## PEPTIDE1{P.[dW].[L-Phe(S)Trp].L.F.[am]}$$$$V2.0
Late stage modification step, phosphate (2:1) salt monoacetate dihydrate
  step yield: 43% yield

Source: patent publication US5378803A (Sterling Winthrop Inc., priority 1992, dated 1995)
